From article PMC3000341
Results are given in words; binding and its absence hold for the method and conditions named. In cells and extracts the contact can be indirect. Some results given as binding are weak or reduced against the parent protein; the word gives no strength.

Protein sequences, listed by entry. Tags and fused reporters are not part of them. Lines headed by an entry give the natural chain unless they say otherwise; changes in a name come on top. Chains listed by the source or under a name are the forms on record and can include a tag or linker. Residues count along the entry.
UniProt P48356, residues 22-1162: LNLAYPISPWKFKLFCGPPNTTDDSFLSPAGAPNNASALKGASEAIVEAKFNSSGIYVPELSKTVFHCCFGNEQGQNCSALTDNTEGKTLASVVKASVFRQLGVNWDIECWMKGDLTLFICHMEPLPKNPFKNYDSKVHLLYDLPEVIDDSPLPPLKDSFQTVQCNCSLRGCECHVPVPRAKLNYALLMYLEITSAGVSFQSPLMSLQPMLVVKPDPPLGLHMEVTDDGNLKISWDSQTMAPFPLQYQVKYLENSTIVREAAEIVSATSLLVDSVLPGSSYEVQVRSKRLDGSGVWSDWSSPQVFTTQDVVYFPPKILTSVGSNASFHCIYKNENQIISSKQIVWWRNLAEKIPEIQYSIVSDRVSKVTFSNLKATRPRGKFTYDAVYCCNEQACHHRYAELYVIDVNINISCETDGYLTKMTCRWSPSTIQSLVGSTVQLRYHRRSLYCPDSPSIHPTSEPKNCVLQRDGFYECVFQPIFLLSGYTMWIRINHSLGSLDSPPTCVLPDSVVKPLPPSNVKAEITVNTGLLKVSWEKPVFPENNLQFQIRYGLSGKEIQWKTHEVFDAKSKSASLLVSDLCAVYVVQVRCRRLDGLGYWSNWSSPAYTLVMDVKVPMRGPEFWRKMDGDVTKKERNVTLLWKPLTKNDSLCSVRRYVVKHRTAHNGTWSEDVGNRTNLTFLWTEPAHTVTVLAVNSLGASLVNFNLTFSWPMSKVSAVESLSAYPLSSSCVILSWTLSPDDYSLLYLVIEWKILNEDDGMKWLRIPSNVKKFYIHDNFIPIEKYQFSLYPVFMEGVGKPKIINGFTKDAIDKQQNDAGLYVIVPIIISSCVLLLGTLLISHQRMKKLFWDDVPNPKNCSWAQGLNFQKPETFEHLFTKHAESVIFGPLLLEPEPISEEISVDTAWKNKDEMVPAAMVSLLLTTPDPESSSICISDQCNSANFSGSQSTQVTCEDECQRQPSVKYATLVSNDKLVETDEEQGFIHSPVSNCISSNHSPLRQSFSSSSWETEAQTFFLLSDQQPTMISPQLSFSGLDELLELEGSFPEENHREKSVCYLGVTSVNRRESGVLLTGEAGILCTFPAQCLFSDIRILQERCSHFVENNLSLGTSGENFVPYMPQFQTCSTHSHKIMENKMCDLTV
wild-type leptin (P41160, residues 22-167): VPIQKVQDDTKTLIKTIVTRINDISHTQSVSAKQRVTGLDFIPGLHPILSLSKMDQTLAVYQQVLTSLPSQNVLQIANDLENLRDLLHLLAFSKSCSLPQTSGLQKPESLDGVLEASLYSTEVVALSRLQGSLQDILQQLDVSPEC
mutant V145E leptin (P41160, form named): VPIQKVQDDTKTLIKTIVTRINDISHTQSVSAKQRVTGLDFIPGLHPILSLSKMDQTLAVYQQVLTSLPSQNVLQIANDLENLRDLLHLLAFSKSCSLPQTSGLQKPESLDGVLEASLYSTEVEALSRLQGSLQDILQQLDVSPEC

Biological target: leptin receptor (mouse (endogenous in mid brain)) (UniProt P48356)
Test: co-IP; mid brain homogenised in RIPA buffer with protease inhibitors; 500 µg total protein immunoprecipitated with 10 µg anti-leptin receptor antibody (ab5593) pre-coupled to protein A magnetic beads; immunoblot with anti-leptin (ab3583) or anti-leptin receptor antibody; each band is tissue extract mixed from three mice

| binding | Substance |
| --- | --- |
| binds | mutant V145E leptin (from UniProt P41160 22-167) (ligand) |
| binds | wild-type leptin (from UniProt P41160 22-167) (ligand) |
